Results deposited as PubChem BioAssay AID1053208 (Peter MacCallum Cancer Centre, 2014)
Shown is one part, drawn at random, of about 17,000 reagents tested. In the full data, 788 (4.7%) were called active. 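Calls rest on z-score classes alone; an extra cut-off of viability at most 70% of control was not applied to them.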 Entries without a mark were called inactive. Reagents against one gene are numbered here. Not all columns of the deposit are shown.

Purpose: 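Synthetic lethal interactions between gene loss and doxorubicin in osteosarcoma cells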 (primary screen)
System: mouse osteosarcoma cells, early-passage culture from an engineered mouse model of fibroblastic bone tumour
Knock-down reagent: siRNA pool against mouse genes, 40 nM
Duration: about 120 h (48 h before drug, then 72 h with drug)
Conditions: doxorubicin 100 nM for 72 h, roughly 30-40% inhibitory dose
Detection: 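Viability read as ATP luminescence after 72 h of 100 nM doxorubicin or none, duplicate wells averaged, scaled to non-targeting siRNA, then expressed as robust z-scores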
Reading the numbers: viability z-score with doxorubicin: higher = more viable cells under doxorubicin; viability z-score without drug: higher = more viable cells with knock-down alone
Rule for the call: 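a pool counts as active when its viability z-score with doxorubicin is -2 or below and its z-score without drug lies between -2 and 2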

gene knocked down | pool no. | combined z-score class | viability z-score with doxorubicin | viability z-score without drug
Nfe2l2 | 1 | high cell count without drug only | 1.8 | 2.19
Pax8 | 1 | no change with or without drug | 0.56 | -0.17
Slc25a11 | 1 | no change with or without drug | 0.67 | -0.34
Pglyrp1 | 1 | no change with or without drug | 0 | -0.51
Slc4a1 | 1 | no change with or without drug | 0.9 | 0.84
Naa60 | 1 | no change with or without drug | -0.34 | 0.84
Itpa | 1 | no change with or without drug | -0.11 | 0.17
Glt1d1 | 1 | high cell count without drug only | 1.46 | 2.19
Pcdhb20 | 1 | no change with or without drug | 1.57 | 0.84
Syncrip | 1 | no change with or without drug | 0.79 | 1.18
Sync | 1 | no change with or without drug | -0.11 | 0.51
Abcc3 | 1 | no change with or without drug | -0.67 | 0.34
Olr1 | 1 | no change with or without drug | 1.01 | 1.69
Gcm2 | 1 | no change with or without drug | -0.22 | -0.17
Txk | 1 | no change with or without drug | -0.34 | 0.84
Arhgef12 | 1 | low cell count with doxorubicin only (active) | -2.14 | 0.51
Cyp4f39 | 1 | no change with or without drug | 0.45 | 0.84
Gm10101 | 1 | no change with or without drug | -0.45 | 0.17
Slc6a20a | 1 | no change with or without drug | 0 | -0.67
Xpnpep2 | 1 | no change with or without drug | -0.79 | -1.52
Or11g25 | 1 | no change with or without drug | 0.67 | 1.69
Ndufb2 | 1 | no change with or without drug | 0.67 | -1.85
Yars1 | 1 | no change with or without drug | -0.9 | -0.17
Or6b9 | 1 | low cell count with doxorubicin only (active) | -2.02 | -1.01
Gosr1 | 1 | no change with or without drug | -0.9 | -0.17
Uckl1 | 1 | no change with or without drug | 1.57 | 1.01
Vps37c | 1 | no change with or without drug | 1.35 | 0.17
Fpr-rs3 | 1 | no change with or without drug | -0.22 | 1.18
AI931714 | 1 | no change with or without drug | 1.12 | 1.52
Zfp809 | 1 | no change with or without drug | -0.11 | -0.17
Nup107 | 1 | low cell count with and without drug | -3.82 | -3.2
Vwa5b2 | 1 | no change with or without drug | 0 | -0.17
Vwa5b2 | 2 | no change with or without drug | 0 | 0.17
Sowahc | 1 | no change with or without drug | 1.57 | 0.84
Agr3 | 1 | high cell count with doxorubicin only | 2.47 | 1.85
Timd4 | 1 | no change with or without drug | 0.45 | 1.69
4930447C04Rik | 1 | high cell count without drug only | 0.45 | 3.04
Oog4 | 1 | no change with or without drug | -0.45 | 0.84
Map4 | 1 | no change with or without drug | 0.34 | -0.51
Smgc | 1 | no change with or without drug | -0.9 | 0.84
Arhgdib | 1 | no change with or without drug | -0.45 | 0.17
Vars2 | 1 | no change with or without drug | -0.9 | -0.51
Flywch2 | 1 | low cell count without drug only | -0.67 | -3.71
Fam131b | 1 | no change with or without drug | 0.9 | -1.52
Arsa | 1 | high cell count with and without drug | 2.36 | 2.53
Fgf3 | 1 | no change with or without drug | -0.34 | 1.18
Patl2 | 1 | low cell count with doxorubicin only (active) | -2.7 | 0.34
Dmd | 1 | no change with or without drug | 0.67 | 1.52
Nsf | 1 | no change with or without drug | 1.12 | 1.69
Slc22a5 | 1 | no change with or without drug | -0.9 | 0.17

Called active, among the entries above:
gene knocked down | pool no. | combined z-score class | viability z-score with doxorubicin | viability z-score without drug
Arhgef12 | 1 | low cell count with doxorubicin only (active) | -2.14 | 0.51
Or6b9 | 1 | low cell count with doxorubicin only (active) | -2.02 | -1.01
Patl2 | 1 | low cell count with doxorubicin only (active) | -2.7 | 0.34
